Measured values published in paper PMC4503993.
These are yes or no findings as the source states them, for the method shown. In cells and extracts the contact can be indirect. Some entries that bind do so weakly or less than the wild type. For some assays here: Where a sequence is shown, tags or fusion partners need not be part of it.

Chains of the proteins cited; added tags and fusions are not shown.
UniProt Q9JMB7: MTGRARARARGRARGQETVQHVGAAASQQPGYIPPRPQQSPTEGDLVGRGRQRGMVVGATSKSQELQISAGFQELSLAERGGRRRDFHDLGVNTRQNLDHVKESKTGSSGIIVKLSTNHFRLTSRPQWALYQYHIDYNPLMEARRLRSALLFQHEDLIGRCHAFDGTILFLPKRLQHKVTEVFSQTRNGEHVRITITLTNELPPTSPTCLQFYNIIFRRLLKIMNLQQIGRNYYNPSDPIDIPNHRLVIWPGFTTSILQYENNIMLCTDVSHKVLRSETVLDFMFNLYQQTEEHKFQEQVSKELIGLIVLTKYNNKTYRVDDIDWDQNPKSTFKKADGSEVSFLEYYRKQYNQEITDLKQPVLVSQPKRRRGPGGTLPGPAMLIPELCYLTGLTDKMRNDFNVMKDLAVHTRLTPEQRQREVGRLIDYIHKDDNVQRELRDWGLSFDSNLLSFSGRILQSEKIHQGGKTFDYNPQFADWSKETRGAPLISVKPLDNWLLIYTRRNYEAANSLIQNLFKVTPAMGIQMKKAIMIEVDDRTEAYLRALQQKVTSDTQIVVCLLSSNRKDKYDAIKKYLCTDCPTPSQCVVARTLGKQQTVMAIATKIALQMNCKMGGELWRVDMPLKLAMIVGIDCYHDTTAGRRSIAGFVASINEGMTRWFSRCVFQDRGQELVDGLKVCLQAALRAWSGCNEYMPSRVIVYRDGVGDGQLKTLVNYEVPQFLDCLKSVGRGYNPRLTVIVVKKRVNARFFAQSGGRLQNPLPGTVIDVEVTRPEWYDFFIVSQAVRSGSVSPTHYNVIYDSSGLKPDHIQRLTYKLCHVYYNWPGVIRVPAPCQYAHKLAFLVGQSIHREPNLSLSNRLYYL

T1: GST-KIF17b-TC2 (the 991-1038 amino acids of KIF17b) (mouse) (UniProt Q99PW8)
T1 sequence: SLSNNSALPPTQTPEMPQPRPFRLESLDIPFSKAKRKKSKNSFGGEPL

T2: FLAG-CaMKIV-FL (the full length of CaMKIV) (mouse) (UniProt P08414)
T2 sequence: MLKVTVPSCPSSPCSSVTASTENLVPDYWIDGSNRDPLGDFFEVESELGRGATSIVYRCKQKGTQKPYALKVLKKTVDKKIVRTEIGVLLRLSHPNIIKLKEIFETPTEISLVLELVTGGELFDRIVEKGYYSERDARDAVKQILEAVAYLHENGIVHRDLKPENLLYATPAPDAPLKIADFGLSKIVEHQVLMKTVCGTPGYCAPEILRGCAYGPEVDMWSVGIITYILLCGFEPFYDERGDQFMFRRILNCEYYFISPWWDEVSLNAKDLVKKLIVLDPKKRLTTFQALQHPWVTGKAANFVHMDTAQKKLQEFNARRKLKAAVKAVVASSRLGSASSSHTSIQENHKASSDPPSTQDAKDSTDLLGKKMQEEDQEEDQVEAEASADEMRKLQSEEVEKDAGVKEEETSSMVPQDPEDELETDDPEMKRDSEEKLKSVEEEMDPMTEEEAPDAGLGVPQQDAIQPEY

T3: FLAG-KIF17b-FL (the full length of KIF17b) (mouse) (UniProt Q99PW8)
T3 sequence: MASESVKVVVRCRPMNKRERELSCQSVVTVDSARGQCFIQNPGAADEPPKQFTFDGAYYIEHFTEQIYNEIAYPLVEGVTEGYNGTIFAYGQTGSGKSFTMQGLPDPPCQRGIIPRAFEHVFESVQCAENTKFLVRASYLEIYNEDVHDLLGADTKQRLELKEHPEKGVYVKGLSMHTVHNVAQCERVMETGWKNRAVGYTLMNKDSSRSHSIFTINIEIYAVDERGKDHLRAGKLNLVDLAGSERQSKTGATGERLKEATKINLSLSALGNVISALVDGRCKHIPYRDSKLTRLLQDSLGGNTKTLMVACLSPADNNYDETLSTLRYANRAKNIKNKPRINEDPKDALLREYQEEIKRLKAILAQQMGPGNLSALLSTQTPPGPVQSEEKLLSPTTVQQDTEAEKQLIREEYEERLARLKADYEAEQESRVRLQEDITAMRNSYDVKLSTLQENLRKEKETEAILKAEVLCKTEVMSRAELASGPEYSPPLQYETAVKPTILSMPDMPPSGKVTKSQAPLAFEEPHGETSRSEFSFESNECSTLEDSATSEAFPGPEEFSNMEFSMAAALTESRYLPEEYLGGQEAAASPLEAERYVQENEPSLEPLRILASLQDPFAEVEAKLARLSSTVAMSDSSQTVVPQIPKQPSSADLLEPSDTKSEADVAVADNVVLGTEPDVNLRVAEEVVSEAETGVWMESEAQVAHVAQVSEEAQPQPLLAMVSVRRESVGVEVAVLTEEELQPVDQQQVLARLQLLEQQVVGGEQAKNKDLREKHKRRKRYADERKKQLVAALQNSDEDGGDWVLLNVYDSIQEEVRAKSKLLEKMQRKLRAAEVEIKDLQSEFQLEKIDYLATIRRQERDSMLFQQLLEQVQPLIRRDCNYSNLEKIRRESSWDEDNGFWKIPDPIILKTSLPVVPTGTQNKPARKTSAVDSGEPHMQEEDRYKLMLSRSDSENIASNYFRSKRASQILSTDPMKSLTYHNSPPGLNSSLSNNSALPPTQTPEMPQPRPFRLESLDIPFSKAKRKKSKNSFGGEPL

T4: GFP-MVH (mouse VASA homologue) (mouse) (UniProt Q61496)
T4 sequence: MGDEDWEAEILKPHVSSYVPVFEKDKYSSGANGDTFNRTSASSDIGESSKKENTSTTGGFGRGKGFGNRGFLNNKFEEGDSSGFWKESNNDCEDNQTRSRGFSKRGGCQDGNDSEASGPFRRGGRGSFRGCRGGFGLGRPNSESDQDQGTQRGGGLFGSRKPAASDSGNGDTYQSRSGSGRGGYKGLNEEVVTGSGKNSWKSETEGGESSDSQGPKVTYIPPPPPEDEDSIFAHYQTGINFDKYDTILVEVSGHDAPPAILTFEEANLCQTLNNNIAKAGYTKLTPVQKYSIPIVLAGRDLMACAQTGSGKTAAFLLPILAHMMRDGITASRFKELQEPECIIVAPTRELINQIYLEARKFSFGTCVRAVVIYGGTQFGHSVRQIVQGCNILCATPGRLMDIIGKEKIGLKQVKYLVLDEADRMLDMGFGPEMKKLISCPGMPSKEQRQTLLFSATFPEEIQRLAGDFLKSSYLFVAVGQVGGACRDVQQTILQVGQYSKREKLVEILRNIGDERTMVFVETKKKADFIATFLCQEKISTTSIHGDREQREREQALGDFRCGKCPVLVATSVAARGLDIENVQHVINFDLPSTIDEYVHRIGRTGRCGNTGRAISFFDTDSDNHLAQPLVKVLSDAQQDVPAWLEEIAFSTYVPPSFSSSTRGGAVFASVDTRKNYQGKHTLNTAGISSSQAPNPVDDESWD


Key:
[1] = target: T1, GST-KIF17b-TC2 (the 991-1038 amino acids of KIF17b) (mouse); assay: pull-down; purified GST-fusions of KIF17b truncations bound to glutathione-Sepharose beads, incubated with lysates of HEK293T cells transfected with GFP-MVH or GFP-MIWI; blotted with anti-GFP antibody; in Fig. 4C precipitates treated with RNase A at 37 °C for 1 min; only the target purified
[2] = target: T2, FLAG-CaMKIV-FL (the full length of CaMKIV) (mouse); assay: co-IP; HEK293T cells co-transfected with FLAG- and GFP-tagged constructs; lysates in TNE buffer (10 mM Tris-HCl pH 7.5, 150 mM NaCl, 1 mM EDTA, 1% Nonidet P-40); precipitated with anti-FLAG or anti-GFP antibody overnight at 4 °C; in Fig. 6 with or without co-expressed CaMKIV-CA
[3] = target: MIWI (endogenous, mouse testes) (mouse (endogenous in testes)) (UniProt Q9JMB7); assay: co-IP; mouse testes lysate in TNE buffer precipitated with anti-MIWI antibody, blotted with anti-CaMKIV antibody; anti-GFP antibody as negative control
[4] = target: T3, FLAG-KIF17b-FL (the full length of KIF17b) (mouse); assay: co-IP; HEK293T cells co-transfected with FLAG- and GFP-tagged constructs; lysates in TNE buffer (10 mM Tris-HCl pH 7.5, 150 mM NaCl, 1 mM EDTA, 1% Nonidet P-40); precipitated with anti-FLAG or anti-GFP antibody overnight at 4 °C; in Fig. 6 with or without co-expressed CaMKIV-CA
[5] = target: GFP-MIWI (mouse homologue of PIWI, PIWIL1) (mouse) (UniProt Q9JMB7); assay: as above
[6] = target: T4, GFP-MVH (mouse VASA homologue) (mouse); assay: as above

binding [1] | binding [2] | Molecule | other results
binds | binds | GFP-MIWI (mouse homologue of PIWI, PIWIL1) (from UniProt Q9JMB7 1-862) | 
binds | binds | GFP-MVH (mouse VASA homologue) (protein, UniProt Q61496 1-702) MGDEDWEAEILKPHVSSYVPVFEKDKYSSGANGDTFNRTSASSDIGESSKKENTSTTGGFGRGKGFGNRGFLNNKFEEGDSSGFWKESNNDCEDNQTRSRGFSKRGGCQDGNDSEASGPFRRGGRGSFRGCRGGFGLGRPNSESDQDQGTQRGGGLFGSRKPAASDSGNGDTYQSRSGSGRGGYKGLNEEVVTGSGKNSWKSETEGGESSDSQGPKVTYIPPPPPEDEDSIFAHYQTGINFDKYDTILVEVSGHDAPPAILTFEEANLCQTLNNNIAKAGYTKLTPVQKYSIPIVLAGRDLMACAQTGSGKTAAFLLPILAHMMRDGITASRFKELQEPECIIVAPTRELINQIYLEARKFSFGTCVRAVVIYGGTQFGHSVRQIVQGCNILCATPGRLMDIIGKEKIGLKQVKYLVLDEADRMLDMGFGPEMKKLISCPGMPSKEQRQTLLFSATFPEEIQRLAGDFLKSSYLFVAVGQVGGACRDVQQTILQVGQYSKREKLVEILRNIGDERTMVFVETKKKADFIATFLCQEKISTTSIHGDREQREREQALGDFRCGKCPVLVATSVAARGLDIENVQHVINFDLPSTIDEYVHRIGRTGRCGNTGRAISFFDTDSDNHLAQPLVKVLSDAQQDVPAWLEEIAFSTYVPPSFSSSTRGGAVFASVDTRKNYQGKHTLNTAGISSSQAPNPVDDESWD | 
 |  | CaMKIV (endogenous, mouse testes) (enzyme, UniProt P08414 1-469) MLKVTVPSCPSSPCSSVTASTENLVPDYWIDGSNRDPLGDFFEVESELGRGATSIVYRCKQKGTQKPYALKVLKKTVDKKIVRTEIGVLLRLSHPNIIKLKEIFETPTEISLVLELVTGGELFDRIVEKGYYSERDARDAVKQILEAVAYLHENGIVHRDLKPENLLYATPAPDAPLKIADFGLSKIVEHQVLMKTVCGTPGYCAPEILRGCAYGPEVDMWSVGIITYILLCGFEPFYDERGDQFMFRRILNCEYYFISPWWDEVSLNAKDLVKKLIVLDPKKRLTTFQALQHPWVTGKAANFVHMDTAQKKLQEFNARRKLKAAVKAVVASSRLGSASSSHTSIQENHKASSDPPSTQDAKDSTDLLGKKMQEEDQEEDQVEAEASADEMRKLQSEEVEKDAGVKEEETSSMVPQDPEDELETDDPEMKRDSEEKLKSVEEEMDPMTEEEAPDAGLGVPQQDAIQPEY | binding [3]: binds
 |  | GFP-CaMKIV-FL (enzyme, UniProt P08414 1-469) MLKVTVPSCPSSPCSSVTASTENLVPDYWIDGSNRDPLGDFFEVESELGRGATSIVYRCKQKGTQKPYALKVLKKTVDKKIVRTEIGVLLRLSHPNIIKLKEIFETPTEISLVLELVTGGELFDRIVEKGYYSERDARDAVKQILEAVAYLHENGIVHRDLKPENLLYATPAPDAPLKIADFGLSKIVEHQVLMKTVCGTPGYCAPEILRGCAYGPEVDMWSVGIITYILLCGFEPFYDERGDQFMFRRILNCEYYFISPWWDEVSLNAKDLVKKLIVLDPKKRLTTFQALQHPWVTGKAANFVHMDTAQKKLQEFNARRKLKAAVKAVVASSRLGSASSSHTSIQENHKASSDPPSTQDAKDSTDLLGKKMQEEDQEEDQVEAEASADEMRKLQSEEVEKDAGVKEEETSSMVPQDPEDELETDDPEMKRDSEEKLKSVEEEMDPMTEEEAPDAGLGVPQQDAIQPEY | binding [4]: binds
 |  | FLAG-KIF17b-FL (the full length of KIF17b) (protein, UniProt Q99PW8 1-1038) MASESVKVVVRCRPMNKRERELSCQSVVTVDSARGQCFIQNPGAADEPPKQFTFDGAYYIEHFTEQIYNEIAYPLVEGVTEGYNGTIFAYGQTGSGKSFTMQGLPDPPCQRGIIPRAFEHVFESVQCAENTKFLVRASYLEIYNEDVHDLLGADTKQRLELKEHPEKGVYVKGLSMHTVHNVAQCERVMETGWKNRAVGYTLMNKDSSRSHSIFTINIEIYAVDERGKDHLRAGKLNLVDLAGSERQSKTGATGERLKEATKINLSLSALGNVISALVDGRCKHIPYRDSKLTRLLQDSLGGNTKTLMVACLSPADNNYDETLSTLRYANRAKNIKNKPRINEDPKDALLREYQEEIKRLKAILAQQMGPGNLSALLSTQTPPGPVQSEEKLLSPTTVQQDTEAEKQLIREEYEERLARLKADYEAEQESRVRLQEDITAMRNSYDVKLSTLQENLRKEKETEAILKAEVLCKTEVMSRAELASGPEYSPPLQYETAVKPTILSMPDMPPSGKVTKSQAPLAFEEPHGETSRSEFSFESNECSTLEDSATSEAFPGPEEFSNMEFSMAAALTESRYLPEEYLGGQEAAASPLEAERYVQENEPSLEPLRILASLQDPFAEVEAKLARLSSTVAMSDSSQTVVPQIPKQPSSADLLEPSDTKSEADVAVADNVVLGTEPDVNLRVAEEVVSEAETGVWMESEAQVAHVAQVSEEAQPQPLLAMVSVRRESVGVEVAVLTEEELQPVDQQQVLARLQLLEQQVVGGEQAKNKDLREKHKRRKRYADERKKQLVAALQNSDEDGGDWVLLNVYDSIQEEVRAKSKLLEKMQRKLRAAEVEIKDLQSEFQLEKIDYLATIRRQERDSMLFQQLLEQVQPLIRRDCNYSNLEKIRRESSWDEDNGFWKIPDPIILKTSLPVVPTGTQNKPARKTSAVDSGEPHMQEEDRYKLMLSRSDSENIASNYFRSKRASQILSTDPMKSLTYHNSPPGLNSSLSNNSALPPTQTPEMPQPRPFRLESLDIPFSKAKRKKSKNSFGGEPL | binding [5]: binds; binding [6]: binds
